Assay results as given in patent US8519096B2, “Citrullinated peptides for diagnosing and prognosing rheumatoid arthritis” (Nestec S.A., priority 2009, dated 2013).

Tested on: anti-citrullinated protein antibodies
Assay: Sensitivity and specificity of RA diagnosis using synthetic citrullinated fibrin and vimentin peptides
Set-up: species or system human
Conditions: Table 10; for Specificity (%): Normal Control; for Sensitivity (%): RA Patients

Row | Substance | Specificity (%) | Sensitivity (%)
1 | Biotin-GGGATRSSAVRL[Cit]SSVPGVRLLQDS-NH2 [VMT3] | 95 | 50
2 | Biotin-GGGAT[Cit]SSAVRLRSSVPGVRLLQDS-NH2 [VMT1] | 95 | 45

Non-standard residues stand in square brackets, D forms with d. *: point of attachment. Biotin = O=C1N[C@H]2[C@H](CS[C@H]2CCCCC(=O)*)N1; Cit = NC(=O)NCCC[C@H](N)C(=O)O
